PubChem BioAssay AID2517 (National Center for Advancing Translational Sciences (NCATS), 2010)
Where “and” joins values, the source holds several entries; their conditions need not be identical. Equal values may be shown once. Hit rate of the full screen: of about 350,000 compounds, about 1,200 (0.34%) were called active. This list was built around the results that the source calls inconclusive (neither active nor inactive); the mix of calls is not that of the screen. Calls follow the shape of the dose curve; as a rule, active = well fitted inhibition curve with a large enough effect; inconclusive = small, poorly fitted or top-dose-only effect; inactive = no such curve, though single readings can be large or run the other way. Potencies beside an inconclusive call are fits to weak or partial responses and may not hold up.

Amino acid sequences for entries named in this document (tags omitted).
UniProt P27695, whole entry, looked up: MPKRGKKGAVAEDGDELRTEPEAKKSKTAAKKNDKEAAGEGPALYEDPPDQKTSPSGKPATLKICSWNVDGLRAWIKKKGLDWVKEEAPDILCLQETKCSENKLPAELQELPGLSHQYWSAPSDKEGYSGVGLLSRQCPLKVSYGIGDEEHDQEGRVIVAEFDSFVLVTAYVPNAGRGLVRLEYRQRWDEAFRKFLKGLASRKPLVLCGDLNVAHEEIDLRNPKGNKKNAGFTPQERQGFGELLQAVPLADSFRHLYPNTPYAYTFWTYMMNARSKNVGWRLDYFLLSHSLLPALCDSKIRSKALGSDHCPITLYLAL

Molecular target: DNA repair nuclease/redox regulator APEX1 (Homo sapiens) (UniProt P27695)
Assay: qHTS Assay for Inhibitors of the Human Apurinic/apyrimidinic Endonuclease 1 (APE1); also: nearly all actives have a fitted effect of over 55% in size;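 as to activity change, negative = inhibition: plate controls were vehicle for no effect and reference inhibitor for full effect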
Conditions: recombinant APE1, TAMRA/BHQ-2 abasic DNA cleavage fluorescence; activity change, negative = inhibition: at 65.8 µM (top of the series)
Method in brief: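 Kinetic fluorescence read (525 ex/598 em nm, three reads 60 s apart) of AP-site incision; signal = third minus first read. Enzyme 0.75 nM, dual-labelled THF duplex 50 nM, compound preincubation 15 min RT.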
Potency is read from the fitted curve at half-maximal effect.

SMILES | Potency | activity change, negative = inhibition
Cc1nn(-c2ccccc2)c(Cl)c1/C=N/Nc1ccc(S(=O)(=O)Nc2ccccc2C(=O)O)cc1[N+](=O)[O-] | inconclusive: 22.4 µM [inhibitor, partial curve] | –
Cc1cc([N+](=O)[O-])nn1CCCC(=O)NCc1ccccc1 | inconclusive: 0.355 µM [inhibitor, partial curve] | –
COc1ccc(OCC(=O)OCCN2C(=O)c3ccccc3C2=O)cc1 | inconclusive: 28.2 µM [inhibitor, partial curve] | –
O=C(Nc1ccc(F)c(F)c1)c1ccc(F)c(S(=O)(=O)N2CCC3(CC2)OCCO3)c1 | inconclusive: 0.224 µM [inhibitor, full curve, poor fit] | –
O=[N+]([O-])c1ccc(-c2c[nH]c(=S)[nH]2)cc1 | – | inactive: 3.11%
CC1(C(=O)O)Sc2[nH]c(=O)sc2C2c3ccccc3OC(=O)C21 (stereo not drawn) | inconclusive: 28.2 µM [inhibitor, single point] | –
COc1ccc(Cl)cc1C(=O)Nn1c(-c2cccs2)nc2ccccc2c1=O | inconclusive: 10 µM [inhibitor, single point] | –
CC1CCCCC1NC(=O)CSc1ccsc1[N+](=O)[O-] (stereo not drawn) | – | inactive: 2.14%
Cc1c(Cl)cccc1N=Cc1ccc([N+](=O)[O-])s1 | inconclusive: 39.8 µM [inhibitor, partial curve] | –
CCc1nn2c(=O)cc(COc3ccc(/C=C4\C(=N)N5N=C(C)SC5=NC4=O)cc3)nc2s1 | inconclusive: 39.8 µM [inhibitor, single point] | –
CC1(C)C(=O)Nc2ccccc2N1C(=O)CSc1nnc2ccccn12 | inconclusive: 17.8 µM [inhibitor, partial curve] | –
CC(=O)Oc1ccc(C2C3=C(CC(C)(C)CC3=O)Nc3cc4c(cc32)OCCO4)cc1 (stereo not drawn) | inconclusive: 2.51 µM [inhibitor, partial curve, poor fit] | –
N#CCCN(C(=O)COC(=O)C1CCN(S(=O)(=O)c2cccs2)CC1)c1ccccc1 | inconclusive: 25.1 µM [inhibitor, partial curve] | –
Cc1cc(O)c2c(c1O)C(=O)c1c(O)cc(C)c(O)c1C2=O | inconclusive: 31.6 µM [inhibitor, partial curve] | –
COCCSc1ccccc1C(=O)Nc1nnc(COC)s1 | inconclusive: 44.7 µM [inhibitor, single point] | –
CO[C@H]1COC(=O)[C@H]2CCCN2C(=O)[C@@H](C)COC(=O)C/C=C\[C@@H]1C | inconclusive: 3.16 µM [inhibitor, single point] | –
COc1ccc(NC(=O)C2CCCN(c3nc(C)cc(C)n3)C2)cc1 (stereo not drawn) | inconclusive: 12.6 µM [inhibitor, partial curve] | –
Cc1nn(-c2ccccc2)nc1-c1nnc(-c2ccc(C(F)(F)F)cc2)o1 | inconclusive: 5.62 µM [inhibitor, single point] | –
C#CCSc1nnc(-c2ccccc2)c(=O)[nH]1 | inconclusive: 35.5 µM [inhibitor, single point] | –
Cc1cc(C)cc(C(=O)NCC(=O)OCC(=O)N(C)c2ccccc2)c1 | inconclusive: 15.8 µM [inhibitor, single point] | –
CN(C)c1ccc(-c2nc(NCCc3cnc[nH]3)c3ccccc3n2)cc1 | inconclusive: 39.8 µM [inhibitor, single point] | –

SMILES | Potency | activity change, negative = inhibition
Cc1ccc(C)c(NC(=O)CN(C)C(=O)c2cccc(N3C(=O)CCC3=O)c2)c1 | – | inactive: -5.08%
Cc1ccc(S(=O)(=O)N2CCCCC2)cc1C(=O)Nc1ccc(S(=O)(=O)Nc2ncccn2)cc1 | inconclusive: 25.1 µM [inhibitor, partial curve] | –
CN1CCc2c(sc3c2c(=O)n(-c2ccccc2)c2n[nH]c(=S)n32)C1 | inconclusive: 28.2 µM [inhibitor, single point] | –
O=C(O)[C@@H](O)[C@@H](O)[C@H](O)[C@H](O)CO | inconclusive: 0.631 µM [inhibitor, full curve] | –
CCOc1cccc(=O)c2c(C)n(CC(=O)c3ccccc3)c(C)c12 | – | inactive: 0.0885%
CCc1ccc(S(=O)(=O)Nc2cccc(-c3ccc4nncn4n3)c2)s1 | inconclusive: 0.0794 µM [inhibitor, full curve, poor fit] | –
COc1cc2nc(N3CCN(C(=O)C4COc5ccccc5O4)CC3)nc(N)c2cc1OC (stereo not drawn) | inconclusive: 22.4 µM [inhibitor, single point] | –
CN(C)CCOC(=O)c1ccc2[nH]c3c(c2c1)CSCC3 | – | inactive: -3%
O=C(NCc1nc2ccccc2[nH]1)C1=C[C@@H](C2CCCCC2)C[C@@H](OCc2ccc(CO)cc2)O1 | inconclusive: 3.16 µM [inhibitor, single point] | –
CCOc1ccccc1N1CCN(S(=O)(=O)c2ccc3c4c(cccc24)C(=O)N3)CC1 | inconclusive: 35.5 µM [inhibitor, partial curve] | –
Cc1ccc(-c2csc(NC(=O)CSc3nnc4c(n3)[nH]c3ccccc34)n2)cc1 | inconclusive: 3.16 µM [inhibitor, single point] | –
NCC(=O)Nc1ccc(Cl)cc1C(=O)c1ccc[nH]1 | inconclusive: 2.24 µM [inhibitor, full curve, poor fit] | –
O=c1c(O)c(-c2ccc(O)cc2)oc2cc(O)cc(O)c12 | inactive and inconclusive: 28.2 µM [inhibitor, partial curve] | –
COC(=O)[C@H](CC(C)C)NC(=O)c1ccc(NC[C@@H](N)CS)cc1-c1cccc2ccccc12 | – | inactive: -0.0331%
O=c1nc2ccccc2c2n1CC(CN1CCN(c3ccccc3)CC1)N2 (stereo not drawn) | – | inactive: 1.02%
CSc1ccc(-c2sc(Nc3ccccc3)n[n+]2-c2ccccc2)cc1 | inconclusive: 26.7 µM [inhibitor, single point] | –
O=C(O)c1ccccc1/C=N/Nc1nc(N2CCCCC2)nc(N2CCCCC2)n1 | inconclusive: 7.08 µM [inhibitor, single point] | –
O=C(CNC(=O)c1ccncc1)N/N=C/c1cc(Br)ccc1OCc1ccccc1 | inconclusive: 44.7 µM [inhibitor, single point] | –
CCn1c(SCC(=O)OC)nc2sc3c(c2c1=O)CCC3 | inconclusive: 25.1 µM [inhibitor, single point] | –
COc1cc(/C=C2/C(=N)N3C=CSC3=NC2=O)ccc1OCCCOc1ccccc1C | inconclusive: 39.8 µM [inhibitor, partial curve, poor fit] | –
CC(NC(=O)c1ccco1)C1COc2ccccc2O1 (stereo not drawn) | inconclusive: 22.4 µM [inhibitor, single point] | –

Structures above that have fluorine (2):
SMILES | Potency | activity change, negative = inhibition
O=C(Nc1ccc(F)c(F)c1)c1ccc(F)c(S(=O)(=O)N2CCC3(CC2)OCCO3)c1 | inconclusive: 0.224 µM [inhibitor, full curve, poor fit] | –
Cc1nn(-c2ccccc2)nc1-c1nnc(-c2ccc(C(F)(F)F)cc2)o1 | inconclusive: 5.62 µM [inhibitor, single point] | –

Later entries:

SMILES | Potency | activity change, negative = inhibition
O=C(Nc1cccc(F)c1)c1ccc(-c2ccccc2Cl)o1 | inconclusive: 4.47 µM [inhibitor, single point] | –
Cc1onc(-c2c(F)cccc2Cl)c1C(=O)NCCN1CCNC1=O | inconclusive: 12.6 µM [inhibitor, partial curve] | –
ICCc1ccccc1 | – | inactive: 4.22%
CCN(CC)CCCC(C)n1c(-c2ccccc2)nc2c(N(CCOC)CCOC)nc(C)nc21 (stereo not drawn) | inconclusive: 35.5 µM [inhibitor, single point] | –
CCCc1c(NC(=O)Nc2ccc(F)cc2)cnn1-c1ccccc1 | inconclusive: 20 µM [inhibitor, single point] | –
N[C@@H](CO)c1nnc([C@H](CC(=O)O)NC(=O)C2CCNCC2)o1 | – | inactive: 2.72%
COC(=O)CC1c2ccccc2C(Cc2ccc3c(c2)OCO3)=C(C)N1C(=O)OC (stereo not drawn) | inactive and inconclusive: 6.31 µM [inhibitor, partial curve, poor fit] | –
COC(=O)CN1C(=O)N/C(=C/c2ccccc2OC)C1=O | inconclusive: 17.8 µM [inhibitor, single point] | –
COc1ccc(S(=O)(=O)NCCSCc2ccco2)cc1 | inconclusive: 35.5 µM [inhibitor, single point] | –
O=c1[nH]ccc2c(O)cccc12 | inconclusive: 31.6 µM [inhibitor, single point] | –
COc1cccc(-n2c(SCc3cc(=O)oc4cc(O)c(O)cc34)nc3ccccc3c2=O)c1 | active: 10 µM | –
CCc1ccccc1NC(=O)C1CCCN1S(=O)(=O)c1ccc(-c2ccc(=O)[nH]n2)s1 (stereo not drawn) | – | inactive: 82%
O=C1CC(c2ccc3c(c2)OCO3)c2ccc(O)cc2O1 (stereo not drawn) | – | inactive: -2.77%
O=C(/C=C/c1ccc(O)c(O)c1)OC1C[C@](O)(C(=O)O)C[C@@H](O)[C@H]1O (stereo partly drawn) | inactive | –
C[C@@H]1C[C@H]2[C@@H]3CCC4=CC(=O)C=C[C@]4(C)[C@@]3(F)[C@@H](O)C[C@]2(C)[C@H]1C(=O)CO | inconclusive: 39.8 µM [inhibitor, single point] | –
Nc1nnc(SCc2nc3scc(-c4ccccc4)c3c(=O)[nH]2)s1 | inconclusive: 44.7 µM [inhibitor, single point] | –
COc1ccc(Br)c2oc(SC)cc(=O)c12 | inconclusive: 3.55 µM [inhibitor, single point] | –
COc1cc(C(CC(=O)N2CCCC2)c2c(OC)cc(OC)c3ccc(=O)oc23)cc(OC)c1OC (stereo not drawn) | inconclusive: 17.8 µM [inhibitor, partial curve, poor fit] | –
CCCCCCC#CC1C=CC(Oc2ccc(C=O)cc2)C(CO)O1 (stereo not drawn) | inconclusive: 7.08 µM [inhibitor, single point] | –
COc1ccccc1NC(=O)c1c(C)nc2ccccc2c1C(=O)O | inconclusive: 0.282 µM [inhibitor, full curve, poor fit] | –
C/C=C/C=C/C(=O)[C@@H]1[C@@H]([C@]2(C)OC(=O)C(C)=C2O)[C@H]2/C(=C(O)/C=C/C=C/C)C(=O)[C@]1(C)C(=O)C2(C)O (stereo partly drawn) | inconclusive: 25.1 µM [inhibitor, partial curve] | –
